Reference: the supplement of paper PMC12823440, “Inhibitors supercharge kinase turnover through native proteolytic circuits” (Nature, 2025)
Where a name gives a salt, the structure may show the parent alone. Some of the results follow. Hit calls seldom repeat between salt and free forms of one compound.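 In K562 cells expressing nanoluciferase-fused kinases, luminescence was recorded at 4 h intervals between 2 and 18 h, normalized as percent of control with DMSO at 100% and a positive control at 0%. A significant (2 sigma) signal drop marks a time point as decreased. The authors' rule for a hit is not shown and takes in more than the number of time points.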

By UniProt entry, the sequences of proteins in these tests, tags left out. Where a name states a change or a piece, a line headed by the entry shows the natural chain unless it says otherwise.
UniProt Q9Y6E0: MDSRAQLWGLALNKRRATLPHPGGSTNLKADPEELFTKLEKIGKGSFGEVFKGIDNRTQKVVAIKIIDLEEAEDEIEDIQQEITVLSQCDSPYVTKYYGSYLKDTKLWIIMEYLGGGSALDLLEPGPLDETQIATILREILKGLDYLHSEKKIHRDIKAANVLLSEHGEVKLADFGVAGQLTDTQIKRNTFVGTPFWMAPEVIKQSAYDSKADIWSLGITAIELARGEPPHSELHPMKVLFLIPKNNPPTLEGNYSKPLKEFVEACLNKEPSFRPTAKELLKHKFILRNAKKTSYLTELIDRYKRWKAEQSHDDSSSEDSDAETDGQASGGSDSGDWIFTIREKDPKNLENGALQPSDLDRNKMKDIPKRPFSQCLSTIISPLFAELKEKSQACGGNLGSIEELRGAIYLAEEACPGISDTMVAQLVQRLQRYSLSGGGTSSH

Each compound was assayed against STK24 (UniProt Q9Y6E0) (assay: number of time points (of 5) at which kinase-Nluc abundance scored as decreased, DMSO-normalised (count); higher = more persistent destabilization). Details: K562; 2-18 h.

SMILES | number of time points
CS(=O)(=O)c1ccc(-c2noc(C(F)(F)F)c2-c2ccccc2)cc1 (10 µM) | 0
COc1ccc2[nH]cc(/C=C3\C(=O)Nc4ccc(NC(=O)CCN5CCCCC5)cc43)c2c1 (2.5 µM) | 0
O=C(Nc1ccc(F)cc1F)[C@H](NC(=S)Nc1cc(C(F)(F)F)cc(C(F)(F)F)c1)c1ccccc1 (2.5 µM) | 0
CC(C)CN[C@H]1CS(=O)(=O)C[C@@H]1S(=O)(=O)c1ccc(Cl)cc1 (10 µM) | 0
COc1ccc(C2CC(c3ccccc3)=NN2c2ccc(S(N)(=O)=O)cc2)cc1 (configuration not stated) (10 µM) | 0
CC/C=C\C/C=C\C/C=C\CCCCCCCC(=O)O [α-Linolenic acid] (10 µM) | 0
O=C(Nc1nc2ccccc2[nH]1)c1cccc(-n2cccc2)c1 (10 µM) | 0
COc1ncc(-c2nc(N3CCOCC3)nc3c(CN4CCC(C(C)(C)O)CC4)cc(F)cc23)cc1NS(C)(=O)=O [Linperlisib] (10 µM) | 0
COc1ccc([C@H]2c3[nH]c4ccc(Cl)cc4c3CCN2C(=O)Oc2ccc(Cl)cc2)cc1 (2.5 µM) | 0
COc1c(NC(=O)C(=O)c2ccc(OCCN3CCOCC3)c3ccccc23)cc(C(C)(C)C)cc1NS(C)(=O)=O (2.5 µM) | 0
COc1ccc([C@@H]2CC(=O)c3c(O)cc(O)cc3O2)cc1O [Hesperetin] (10 µM) | 0
N#Cc1cccc(-c2c[nH]c3ncnc(N4CCOCC4)c23)c1 (10 µM) | 0
C/C(=C1/C(=O)Nc2ccc(NC(N)=O)cc21)c1ccc[nH]1 (10 µM) | 0
Nc1ncnc2c1c(-c1ccc(Oc3ccccc3)cc1)nn2C1CCNCC1 [N-piperidine Ibrutinib (hydrochloride)] (10 µM) | 0
N#Cc1ccc2ncnc(NC3CCC(N4CCOCC4)CC3)c2c1 (configuration not stated) (10 µM) | 0
CC(=O)c1c(C)c2cnc(Nc3ccc(N4CCN(CCCCNC(=O)COc5cccc6c5C(=O)N(C5CCC(=O)NC5=O)C6=O)CC4)cn3)nc2n(C2CCCC2)c1=O (configuration not stated) (10 µM) | 0
CC(C)=CC(=O)CCC(=O)N1CCN(Cc2cc3nc(-c4cccc5[nH]ncc45)nc(N4CCOCC4)c3s2)CC1 (10 µM) | 0
Cc1ccc(S(=O)(=O)Nc2ccccc2C=Nc2ccccc2NS(=O)(=O)c2ccc(C)cc2)cc1 (10 µM) | 0
NCCN1CCN(C/C=C/C(=O)N2CCC[C@@H](n3nc(-c4ccc(Oc5ccccc5)cc4)c4c(N)ncnc43)C2)CC1 [Ibrutinib-MPEA] (10 µM) | 0
O=C(CNC(=O)c1ccc(-c2ccccc2)cc1)NC1CCCc2ccccc21 (configuration not stated) [TAO Kinase inhibitor 1] (10 µM) | 0
CC(C)CN(CC(=O)N1CCN(CC(OCc2ccc3ccccc3c2)c2ccc(Cl)cc2Cl)CC1)CC(C)C (configuration not stated) [LYN-1604 (dihydrochloride)] (2.5 µM) | 0
CO[C@H]1C[C@@H]2CC[C@@H](C)[C@@](O)(O2)C(=O)C(=O)N2CCCC[C@H]2C(=O)O[C@H]([C@H](C)C[C@@H]2CC[C@@H](O)[C@H](OC)C2)CC(=O)[C@H](C)/C=C(\C)[C@@H](O)[C@@H](OC)C(=O)[C@H](C)C[C@H](C)/C=C/C=C/C=C/1C [Rapamycin] (10 µM) | 0
Cc1ccc(Nc2cc(-c3cccc(N4C(=O)c5ccccc5C4=O)c3)ncn2)cc1NS(C)(=O)=O (10 µM) | 0
Nc1cc(Nc2ccc(S(N)(=O)=O)cc2)ncn1 (10 µM) | 0
CCOc1cc(C(=O)N2CCC(N3CCN(C)CC3)CC2)ccc1Nc1ncc2c(n1)N(C1CCCC1)c1ccccc1C(=O)N2C (10 µM) | 0
COCCOc1ccc(-c2cn(-c3ccccc3)c3nc[nH]c(=O)c23)cc1 (10 µM) | 0
Cc1cc(O)c(C(C)C)cc1N=O [Poloxime] (10 µM) | 0

Three compounds from above, ordered by count of non-hydrogen atoms, smallest number first.
SMILES | number of time points
CC/C=C\C/C=C\C/C=C\CCCCCCCC(=O)O [α-Linolenic acid] (10 µM) | 0
COc1ccc([C@@H]2CC(=O)c3c(O)cc(O)cc3O2)cc1O [Hesperetin] (10 µM) | 0
N#Cc1cccc(-c2c[nH]c3ncnc(N4CCOCC4)c23)c1 (10 µM) | 0
